PubChem BioAssay AID504795, Drosophila RNAi Screening Center, 2011

Aim: 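Knock-downs causing abnormal branching, bundling, swelling or growth of cultured neurons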 (primary screen)
System: primary Drosophila neurons and glia
Knock-down reagent: long dsRNA against Drosophila genes, 250 ng dsRNA per well
Timing: one week
Read-out: 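Descriptive morphology terms assigned by visual inspection of live automated images of GFP-marked cells, taken one week after adding 250 ng dsRNA per well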
The reagents shown are a selection, not the whole library. 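Every listed dsRNA shows some phenotype; how reagents were selected for listing is not stated.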 Names joined by + are all predicted targets of the reagent.

no.	predicted target	DRSC id	phenotype seen, replicate 1	phenotype seen, replicate 2
1	CR30068 (retired record)	DRSC05477	axon bundles split apart	
2	PyK (Pyruvate kinase)	DRSC16806	too many neurite branches	
3	CG5913	DRSC15916	reduced axon outgrowth	
4	loh (lonely heart)	DRSC01122	reduced axon outgrowth	
5	ppk (pickpocket)	DRSC03595	axon bundles split apart	
6	CG7059	DRSC16187	sheet-like cell extensions	
7	ed (echinoid)	DRSC00350	axon bundles split apart	
8	Lasp	DRSC10379	too many neurite branches	
9	Mmp2 (Matrix metalloproteinase 2)	DRSC06698	beaded; swollen axons	
10	Gr64a (Gustatory receptor 64a)	DRSC21713	too many neurite branches	
11	Fer1 (48 related 1)	DRSC12507	too many neurite branches	
12	Fer1 (48 related 1)	DRSC12555	too many neurite branches	
13	RpL4 (Ribosomal protein L4)	DRSC16833	axon bundles split apart	
14	CG34423 + Mthfs	DRSC04088	abnormal cell clusters	
15	mv (mauve)	DRSC08208	abnormal cell clusters	
16	sgl (sugarless)	DRSC21431	axon bundles split apart	
17	Wdr92 (WD repeat domain 92)	DRSC10187	reduced axon outgrowth	
18	CG7377	DRSC10830	cell fragments present	
19	CG14491	DRSC06462	too many neurite branches	
20	Gr22a (Gustatory receptor 22a)	DRSC22283	abnormal cell clusters	
21	CG14545	DRSC14889	too many neurite branches	
22	CG15561	DRSC15100	reduced axon outgrowth	
23	sta (stubarista)	DRSC18838	too many neurite branches	
24	bru2 (bruno 2)	DRSC01247	axon bundles split apart	
25	Mcm5 (Minichromosome maintenance 5)	DRSC16735	fewer cells	
26	ND-51L2 (NADH dehydrogenase (ubiquinone) 51 kDa subunit-like 2)	DRSC07080	too many neurite branches	
27	Obp83g (Odorant-binding protein 83g)	DRSC12269	axon bundles split apart	
28	E(spl)m7-HLH (Enhancer of split m7, helix-loop-helix)	DRSC16696	axon bundles split apart	
29	meigo (medial glomeruli)	DRSC15877	too many neurite branches	
30	Hr3 (Hormone receptor 3)	DRSC06118	axon bundles split apart	
31	CG32984	DRSC21602	too many neurite branches	
32	Pkc98E (Protein C kinase 98E)	DRSC16791	too many neurite branches	
33	alpha-Man-Ic (alpha-Mannosidase class I c)	DRSC21674	too many neurite branches	
34	conv (convoluted)	DRSC07213	axon bundles split apart	
35	CG17803	DRSC15275	reduced axon outgrowth	
36	TpnC73F (Troponin C at 73F)	DRSC11307	axon bundles split apart	
37	CG14036	DRSC02361	cell fragments present	
38	CG13016	DRSC06271	fewer cells	
39	Dp1 (Dodeca-satellite-binding protein 1)	DRSC07403	abnormal cell clusters	
40	CG30089	DRSC06127	fewer cells	
41	CG30089	DRSC06267	fewer cells	
42	pAbp (poly(A) binding protein)	DRSC07659	too many neurite branches	
43	Slmap (Sarcolemma associated protein)	DRSC03799	too many neurite branches	
44	Cals (Calsyntenin)	DRSC21661	axon bundles split apart	
45	pdm2 (POU domain protein 2)	DRSC02497	abnormal cell clusters	
46	CNT1 (Concentrative nucleoside transporter 1)	DRSC06082	fewer cells	
47	Erk7 (Extracellularly regulated kinase 7)	DRSC18227	axon bundles split apart	
48	zetaCOP (Coat Protein (coatomer) zeta)	DRSC11412	reduced axon outgrowth	
49	Prp6 (pre-mRNA processing factor 6)	DRSC10724	cell fragments present	
50	Unr (Upstream of N-ras)	DRSC10761	axon bundles split apart	
51	Obp50e (Odorant-binding protein 50e)	DRSC06434	abnormal cell clusters	
52	CG14321	DRSC14800	sheet-like cell extensions	
53	CG34001	DRSC09042	abnormal cell clusters	
54	l(3)73Ah (lethal (3) 73Ah)	DRSC11359	axon bundles split apart	abnormal cell clusters
55	Cyp18a1 (Cytochrome P450 18a1)	DRSC20235	too many neurite branches	
56	CG32512	DRSC21401	sheet-like cell extensions	
57	KP78a + KP78b	DRSC16721	abnormal cell clusters	
58	lva (lava lamp)	DRSC18403	sheet-like cell extensions	
59	Yif1 (Yip1-interacting factor 1)	DRSC15817	reduced axon outgrowth	
60	BaraA1 + BaraA2	DRSC05417	abnormal cell clusters	
61	CG33679	DRSC01436	axon bundles split apart	
62	APP-BP1 (beta-Amyloid precursor protein binding protein 1)	DRSC10920	reduced axon outgrowth	
63	Rpt3 (Regulatory particle triple-A ATPase 3)	DRSC20283	axon bundles split apart	
64	Shab (Shaker cognate b)	DRSC08013	too many neurite branches	
65	Xrp1	DRSC15283	cell fragments present	
66	CG13858 (retired record)	DRSC14708	too many neurite branches	
67	Flad1 (Flavin adenine dinucleotide synthetase 1)	DRSC19898	too many neurite branches	
68	CG13457	DRSC10004	axon bundles split apart	sheet-like cell extensions
69	CG6628	DRSC10679	too many neurite branches	
70	Sox15 (Sox box protein 15)	DRSC07555	fewer cells	
71	Mnt	DRSC17894	axon bundles split apart	
72	CG5653	DRSC10534	too many neurite branches	
73	Cyp6a23 (Cytochrome P450 6a23)	DRSC07383	axon bundles split apart	
74	Nse4 (Non-SMC element 4)	DRSC02239	reduced axon outgrowth	
75	Deaf1 (Deformed epidermal autoregulatory factor-1)	DRSC11143	fewer cells	
76	pre-mod(mdg4)-W + pre-mod(mdg4)-Y + mod(mdg4) + 3 more	DRSC16328	abnormal cell clusters	
77	rno (rhinoceros)	DRSC08584	beaded; swollen axons	
78	otk (off-track)	DRSC07658	reduced axon outgrowth	
79	Slc25A46a	DRSC20125	axon bundles split apart	
80	Syngr (Synaptogyrin)	DRSC06003	fewer cells	
81	CG17490	DRSC03797	beaded; swollen axons	
82	Osi24 (Osiris 24)	DRSC12275	too many neurite branches	
83	Nuak (Nuak family kinase)	DRSC14415	abnormal cell clusters	
84	Nuak (Nuak family kinase)	DRSC14416	too many neurite branches	
85	alphaTub84D (alpha-Tubulin at 84D)	DRSC12623	reduced axon outgrowth	
86	CG42540	DRSC08593	too many neurite branches	
87	SNCF (SoxNeuro Co-Factor)	DRSC10115	axon bundles split apart	abnormal cell clusters
88	prc (pericardin)	DRSC11385	sheet-like cell extensions	
89	CG7900	DRSC16336	too many neurite branches	
90	CG7900	DRSC21343	axon bundles split apart	
91	RpS28a (Ribosomal protein S28a)	DRSC15064	abnormal cell clusters	
92	CG10195	DRSC02026	abnormal cell clusters	
93	CG34382	DRSC08999	abnormal cell clusters	
94	CG12661	DRSC17864	too many neurite branches	
95	Ccdc39 (Coiled-coil domain containing protein 39)	DRSC12286	abnormal cell clusters	
96	CG14632 (retired record)	DRSC17942	axon bundles split apart	
97	SH3PX1 (SH3 and PX domain containing 1)	DRSC11139	cell fragments present	
98	CG13385	DRSC02259	abnormal cell clusters	
99	Polr1C (RNA polymerase I and III subunit C)	DRSC02719	too many neurite branches	
100	Madm (MLF1-adaptor molecule)	DRSC12129	axon bundles split apart	
101	mRpS16 (mitochondrial ribosomal protein S16)	DRSC07152	fewer cells	
102	CCHa2-R (CCHamide-2 receptor)	DRSC04825	too many neurite branches	
103	CG34112	DRSC12235	sheet-like cell extensions	
104	CG10660	DRSC09769	cell fragments present	weaker green signal
105	mus81	DRSC18644	abnormal cell clusters	
106	Edem2 (ER degradation enhancer, mannosidase alpha-like 2)	DRSC02877	sheet-like cell extensions	
107	Gr36a (Gustatory receptor 36a)	DRSC22663	beaded; swollen axons	
108	fru (fruitless)	DRSC16953	axon bundles split apart	
109	Cib2 (Calcium and integrin binding family member 2)	DRSC04535	fewer cells	
110	wcy (wacky)	DRSC20132	cell fragments present	
111	RpL9 (Ribosomal protein L9)	DRSC03418	abnormal cell clusters	
112	B-H2 (BarH2)	DRSC19335	abnormal cell clusters	
113	Jon99Fii (Jonah 99Fii)	DRSC15430	too many neurite branches	
114	Nab2 (Nuclear polyadenosine RNA-binding 2)	DRSC14158	cell fragments present	
115	CG31872	DRSC02568	cell fragments present	abnormal cell clusters
116	CG31872	DRSC02572	too many neurite branches	
117	RpL37-1 (Ribosomal protein L37-1)	DRSC20149	sheet-like cell extensions	
118	RpL37-1 (Ribosomal protein L37-1)	DRSC21646	too many neurite branches	axon bundles split apart
119	CG44085	DRSC02922	sheet-like cell extensions	
120	CG11893	DRSC14429	sheet-like cell extensions	
121	Teh2 (tipE homolog 2)	DRSC08458	too many neurite branches	
122	Pdhb (Pyruvate dehydrogenase E1 beta subunit)	DRSC14420	axon bundles split apart	
123	Cpr76Bc (Cuticular protein 76Bc)	DRSC11062	abnormal cell clusters	
124	RpL5 (Ribosomal protein L5)	DRSC03801	too many neurite branches	
125	CG34327	DRSC22380	axon bundles split apart	axon bundles split apart
126	CG11269	DRSC04094	abnormal cell clusters	
127	dwg (deformed wings)	DRSC18766	too many neurite branches	
128	RhoL (Rho-like)	DRSC16824	axon bundles split apart	
129	tow (target of wingless)	DRSC10192	axon bundles split apart	
130	CG32085	DRSC10138	abnormal cell clusters	
131	CG12177	DRSC19437	axon bundles split apart	
132	Obp19b (Odorant-binding protein 19b)	DRSC20536	sheet-like cell extensions	
133	N (Notch)	DRSC18685	too many neurite branches	
134	CG34357	DRSC12211	too many neurite branches	abnormal cell clusters
135	CG4712	DRSC06882	axon bundles split apart	
136	CG9304	DRSC04538	abnormal cell clusters	
137	CG32365	DRSC10041	weaker green signal	
138	CG32365	DRSC10977	beaded; swollen axons	

Reformatted: results already given.
CCHa2-R (CCHamide-2 receptor) [DRSC04825]
- phenotype seen, replicate 1: too many neurite branches

CG34112 [DRSC12235]
- phenotype seen, replicate 1: sheet-like cell extensions

CG10660 [DRSC09769]
- phenotype seen, replicate 1: cell fragments present
- phenotype seen, replicate 2: weaker green signal

mus81 [DRSC18644]
- phenotype seen, replicate 1: abnormal cell clusters

Edem2 (ER degradation enhancer, mannosidase alpha-like 2) [DRSC02877]
- phenotype seen, replicate 1: sheet-like cell extensions

Gr36a (Gustatory receptor 36a) [DRSC22663]
- phenotype seen, replicate 1: beaded; swollen axons

fru (fruitless) [DRSC16953]
- phenotype seen, replicate 1: axon bundles split apart

Cib2 (Calcium and integrin binding family member 2) [DRSC04535]
- phenotype seen, replicate 1: fewer cells

wcy (wacky) [DRSC20132]
- phenotype seen, replicate 1: cell fragments present

RpL9 (Ribosomal protein L9) [DRSC03418]
- phenotype seen, replicate 1: abnormal cell clusters

B-H2 (BarH2) [DRSC19335]
- phenotype seen, replicate 1: abnormal cell clusters

Jon99Fii (Jonah 99Fii) [DRSC15430]
- phenotype seen, replicate 1: too many neurite branches

Nab2 (Nuclear polyadenosine RNA-binding 2) [DRSC14158]
- phenotype seen, replicate 1: cell fragments present

CG31872 [DRSC02568]
- phenotype seen, replicate 1: cell fragments present
- phenotype seen, replicate 2: abnormal cell clusters

CG31872 [DRSC02572]
- phenotype seen, replicate 1: too many neurite branches

RpL37-1 (Ribosomal protein L37-1) [DRSC20149]
- phenotype seen, replicate 1: sheet-like cell extensions

RpL37-1 (Ribosomal protein L37-1) [DRSC21646]
- phenotype seen, replicate 1: too many neurite branches
- phenotype seen, replicate 2: axon bundles split apart

CG44085 [DRSC02922]
- phenotype seen, replicate 1: sheet-like cell extensions

CG11893 [DRSC14429]
- phenotype seen, replicate 1: sheet-like cell extensions
